{
  "source": "patent US20230414779A1",
  "about": "“ANTIGEN-BINDING FRAGMENTS AND USES THEREOF” (NewSouth Innovations Pty Limited, priority 2020, published 2023)",
  "test_system": "whole blood",
  "test": "HIT condition reconstituted in whole blood, microfluidics chamber (thrombus formation under flow)",
  "assay_type": "cell-based, human",
  "details": "vWf-coated biochip, 20 dyne/cm^2, 37° C.",
  "note": "Some entries share one result that the patent states for a list of compounds.",
  "data": [
    {"molecule": "HRU7: HRU5 linked to bivalirudin (an anticoagulant peptide) by a Ser2Gly12 linker (protein) scFv: EVQLVESGPELKKPGETVKISCKASGYTFTNYGMNWVKQAPGKGLKWMGWLNTYTGESIYPDDFKGRFAFSLETSASTAYLQINNLKSEDTATYFCARGDYGYDDPLDYWGQGTSVTVSSGGGGWAWVWLTETAVGGGGSDIVMTQAPPSVPVTPGESVSISCRSSKSLLHTNGNTYLHWFLQKPGQSPRLLIYRMSVLASGVPDRFSGSGSGTDFTLKISRVEAEDVGVYYCMQHLEYPLTFGAGTKLEIKRAGGGGSGGGGSGGGGFPRPGGGGNGDFEEIPEEYLHHHHHH", "values": [
      {"measurement": "inhibition of deposition of platelets, DNA and neutrophils", "result": "Complete inhibition"}
    ]}
  ]
}
